# Data published in PubChem BioAssay AID1671190 (National Center for Advancing Translational Sciences (NCATS), 2021).
# The chains behind the UniProt entries cited, without tags or fusion partners. Where a name states a change or a piece, a line headed by the entry shows the natural chain unless it says otherwise.
# UniProt P18054: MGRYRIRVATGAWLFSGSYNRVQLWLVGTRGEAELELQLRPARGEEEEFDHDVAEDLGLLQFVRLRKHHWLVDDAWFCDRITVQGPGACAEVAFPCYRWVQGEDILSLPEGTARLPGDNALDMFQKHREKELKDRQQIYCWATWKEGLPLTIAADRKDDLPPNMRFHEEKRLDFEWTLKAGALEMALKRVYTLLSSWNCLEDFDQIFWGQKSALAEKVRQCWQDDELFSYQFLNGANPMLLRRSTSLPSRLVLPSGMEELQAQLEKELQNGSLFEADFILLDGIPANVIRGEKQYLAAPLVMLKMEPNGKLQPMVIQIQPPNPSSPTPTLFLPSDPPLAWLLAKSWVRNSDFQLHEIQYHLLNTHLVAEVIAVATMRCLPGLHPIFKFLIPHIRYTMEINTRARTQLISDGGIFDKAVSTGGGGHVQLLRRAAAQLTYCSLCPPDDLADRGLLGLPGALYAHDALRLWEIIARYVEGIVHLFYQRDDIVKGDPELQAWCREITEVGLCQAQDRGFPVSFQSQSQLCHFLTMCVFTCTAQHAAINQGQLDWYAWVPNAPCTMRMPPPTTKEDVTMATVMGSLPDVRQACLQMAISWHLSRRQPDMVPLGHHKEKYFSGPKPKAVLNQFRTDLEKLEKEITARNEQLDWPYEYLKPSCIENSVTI
# Where “and” joins values, the source holds several entries; their conditions need not be identical. Equal values may be shown once. The whole screen tested about 580,000 compounds, of which about 6,100 (1.1%) were called active. The inconclusive results got no clear call from the source; some entries with a clear call stand among them for comparison. The call rests on the fitted dose curve; in most records, active means well fitted inhibition curve with a large enough effect; inconclusive means small, poorly fitted or top-dose-only effect, or another doubt; inactive means no such curve, though single readings can be large or run the other way. A potency beside an inconclusive call is a rough fit, not a confirmed value.
# Target: Polyunsaturated fatty acid lipoxygenase ALOX12 (Homo sapiens) (UniProt P18054)
# Assay: Primary qHTS assay for inhibitors of human arachidonate 12S-lipoxygenase (ALOX12): Round 2
# Conditions: purified 12hLO, xylenol orange hydroperoxide absorbance; activity change, negative = inhibition: at 108 µM (top of the series) unless noted
# Method in brief: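 Purified human 12hLO (150 nM final) in 25 mM Hepes, 0.01% Triton X-100, pH 7.0 was preincubated 15 min at room temperature with compound. Then 40 uM arachidonic acid was added, 30 min. Hydroperoxide was read by Fe-XO absorbance ratio 573/405 nm.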
# On the % scale 0 is the no-effect control and ±100 the full control effect; potency means the concentration at half of the fitted maximal effect.
SMILES,Potency,"activity change, negative = inhibition"
Cc1ccc(C2=[N+]([O-])C3(CCCC/C3=N\O)N(O)C2(C)C)o1 (centres undefined),inactive,–
Cc1ccc(C)c(NC(=O)CCl)c1,"inconclusive: 10 µM [inhibitor, full curve]",–
O=C(O)c1cccc(S(=O)(=O)N(Cc2ccccc2)c2ccccc2)c1,"inconclusive: 112 µM [inhibitor, single point]",–
Cc1cc(NC(=O)C(=O)c2c[nH]c3ccc(Br)cc23)no1,"inconclusive: 56.2 µM [inhibitor, single point]",–
N#Cc1ccc(C(=O)OCCOc2cccc(Cl)c2)cc1,"inconclusive: 15.8 µM [inhibitor, partial curve, poor fit]",–
Cc1nnc(N2CCC(C(=O)NCc3ccc(F)cc3)CC2)c2nn(-c3ccc(Cl)cc3)c(C)c12,"inconclusive: 1.78 µM [inhibitor, full curve, poor fit]",–
COc1ccc(CN2CCN(c3ncccn3)CC2)c(C)c1C,"inconclusive: 3.55 µM [inhibitor, full curve]",–
O=C(NCC1CC1)c1cc2c(c(-c3cccc(-c4ccccc4F)c3)n1)[C@@H](CCO)N(C(=O)CC1CC1)C2,inactive,–
O=C(CN1C(=O)C2CC=CCC2C1=O)Nc1ccc(F)cc1F (centres undefined),"inconclusive: 0.708 µM [inhibitor, full curve, poor fit]",–
CC1CCCC(N2CCN(S(=O)(=O)c3ccccc3)CC2)C1 (centres undefined),"inconclusive: 2.51 µM [inhibitor, full curve]",–
COc1nc(C)c(C(=O)N2C[C@H](CO)C[C@H](CN3CCCC3)C2)s1,inactive,–
Cc1cccnc1NC(=O)c1ccco1,"inconclusive: 56.2 µM [inhibitor, partial curve, poor fit]",–
CC1CCc2c(c(-c3cccc(O)c3)nc3ccc4ccccc4c23)C1 (centres undefined),"inconclusive: 8.91 µM [inhibitor, full curve]",–
COc1ccccc1N1CCN([C@@H]2[C@H](O)[C@H](CO)O[C@@H]2CNC(=O)c2ccccc2)CC1,active: 22.4 µM,–
Cc1ccc2[nH]c(=O)c(-c3nc4c(C)cccn4c3NCc3ccco3)cc2c1,"inconclusive: 2.24 µM [inhibitor, partial curve, poor fit]",–
O=C1C=C(O)c2ccccc2C1=O,"inconclusive: 35.5 µM [inhibitor, partial curve, poor fit]",–
CCN(CC)c1cc(C)nc(Nc2ccc(NS(=O)(=O)c3cc(C(C)(C)C)ccc3OC)cc2)n1,"inconclusive: 44.7 µM [inhibitor, partial curve, poor fit]",–
NC(=NCCc1c[nH]c2ccccc12)NC(=O)c1ccc(F)cc1,"inconclusive: 100 µM [inhibitor, partial curve, poor fit]",–
CCN(CC(=O)Nc1ccc(NC(C)=O)cc1)C(=O)COc1ccc2ccccc2c1,inactive,–
N#Cc1ccccc1CNc1ccc(F)c(F)c1F,inactive,–
O=S(=O)(Nc1nc2ccccc2nc1NC1CCCCC1)c1ccc(F)cc1,active: 0.631 µM,–
Cc1ccc2c(c1)[C@@H]1CN(C)CC[C@@H]1N2S(=O)(=O)c1ccc([N+](=O)[O-])cc1,"inconclusive: 35.5 µM [inhibitor, partial curve, poor fit]",–
N#Cc1ccc(O[C@@H]2CCOC[C@H]2NC(=O)NCc2ccco2)cc1,inactive,–

SMILES,Potency,"activity change, negative = inhibition"
COc1ccc(NC(=S)N(CCCN2CCCCC2)Cc2cccs2)cc1,inactive,–
CC(C)CC(=O)NC(Nc1ccc([N+](=O)[O-])cc1)C(Cl)(Cl)Cl (centres undefined),"inconclusive: 56.2 µM [inhibitor, partial curve, poor fit]",–
COc1cc(/C=C/C(=O)Nc2nc3ccc(S(=O)(=O)N(C)C)cc3s2)cc(OC)c1OC,inactive,–
O=C1CC(c2ccccc2)N(C(=O)CNC(=O)C2CCOCC2)CCCCCCN1 (centres undefined),"inconclusive: 31.6 µM [inhibitor, partial curve, poor fit]",–
Cc1ccc(Nc2nc(N)nc(CN3CCN(Cc4ccccc4)CC3)n2)cc1Cl,"inconclusive: 50.1 µM [inhibitor, partial curve, poor fit]",–
O=C(C[C@@H]1CCNC[C@@H]1Cc1cc(-c2ccccc2)on1)NCc1cccs1,"inconclusive: 50.1 µM [inhibitor, partial curve]",–
O=C(c1nc(-c2cccnc2)no1)N1CCN(c2ccccc2)CC1,inactive,–
COc1cc(C2C3=C(COC3=O)Oc3cc4c(cc32)OCO4)cc(OC)c1OC(C)=O (centres undefined),"inconclusive: 35.5 µM [inhibitor, partial curve, poor fit]",–
O=C(O)C1CCC(=O)N1C1CCCC1 (centres undefined),"inconclusive: 50.1 µM [inhibitor, partial curve, poor fit]",–
CCC1Nc2ncnc(N3CCCCC3)c2N(Cc2ccc(Br)cc2)C1=O (centres undefined),"inconclusive: 35.5 µM [inhibitor, partial curve, poor fit]",–
CCNc1ncc2nc(-c3ccc(OC)cc3)c(=O)n(Cc3cccs3)c2n1,"inconclusive: 31.6 µM [inhibitor, partial curve, poor fit]",–
Cc1ccc(Cn2c(C(=O)O)c(CNCCc3cccs3)c3ccc(C)cc32)cc1,"inconclusive: 28.2 µM [inhibitor, partial curve, poor fit]",–
COc1ccc(NC(=S)NC2CCCC2)c(OC)c1,inactive,–
O=C(Nc1cccnc1)c1ccc(CN2CCc3ccccc3C2)cc1,inactive,–
Cc1cc2c(C)nc(Cc3ccccc3)nc2o1,inactive,–
COc1ccccc1Cc1c(-c2ccc(F)cc2)nc2ccc(Cl)cn12,"inconclusive: 44.7 µM [inhibitor, partial curve, poor fit]",–
Cc1ncc2n1C(=O)N(C1CCN(CC3CC3)CC1)C2,"inconclusive: 6.31 µM [inhibitor, full curve]",–
O=C(NCc1ccc(Cl)cc1)NCC(F)(F)F,inactive,–
COCCn1c(=O)c2c(nc(-n3nc(C)c(C)c3C)n2Cc2ccccc2)n(C)c1=O,"inconclusive: 100 µM [inhibitor, single point]",–
OC1(c2nc(Nc3ccc(Oc4ccccc4)cc3)n[nH]2)CCOCC1,inactive,–
O=C1CSC2(C(=O)Nc3ccccc32)N1c1cccc(Cl)c1 (centres undefined),inactive,–
C=CCOc1ccc(Br)cc1CNCC,inactive,–
O=C(COC(=O)CCc1nc2ccccc2s1)Nc1ccccc1C(=O)c1ccccc1,"inconclusive: 3.55 µM [inhibitor, full curve, poor fit]",–

SMILES,Potency,"activity change, negative = inhibition"
N#Cc1cc2c(cc1-c1cc3c(cc1C(=O)C1CC1)OCCO3)OCCO2,"inconclusive: 50.1 µM [inhibitor, partial curve, poor fit]",–
CN(C)/C=N/C(=S)Nc1ccc(Cl)c(Cl)c1,"inconclusive: 39.8 µM [inhibitor, partial curve]",–
O=C1CC(=O)CC(c2cc(F)cc(F)c2)C1,"inconclusive: 44.7 µM [inhibitor, partial curve, poor fit]",–
CCCC(=O)Nc1cc(S(=O)(=O)N2CCOCC2)ccc1N1CCCCC1,inactive,–
Cc1cccc(NC(=S)NNC(=O)c2csc3c2CCC(C)C3)c1 (centres undefined),"inconclusive: 44.7 µM [inhibitor, partial curve, poor fit]",–
NC(=S)NN=C1CCC(C2CCCCC2)CC1 (centres undefined),active: 35.5 µM,–
CCc1c(C(=O)c2ccc[nH]2)oc2ccc(Cl)cc12,"inconclusive: 44.7 µM [inhibitor, partial curve, poor fit]",–
COc1ccc(C[C@H]2CN3C(=NC[C@@H]3Cc3ccc(O)cc3)N2C[C@H](C)NC(=O)CCC2CCCCC2)cc1,inactive,–
Clc1ccc2c(N/N=C/c3cccc(Br)c3)ccnc2c1,"inconclusive: 50.1 µM [inhibitor, partial curve, poor fit]",–
COc1ccc(S(=O)(=O)NC(C)C(=O)NCc2cccnc2)cc1C (centres undefined),inactive,–
COc1cc(-n2c(-c3ccccc3)n[nH]c2=S)c(OC)cc1Cl,active: 28.2 µM,–
CC1=Nc2cc(C(=O)O)ccc2Sc2ccc(C)cc21,inactive,–
c1ccc2sc(SN3CCOCC3)nc2c1,"inconclusive: 9.07 µM [inhibitor, single point] and active: 12.6 µM",–
CC(C)CC(=O)NC(=S)Nc1ccc(CN2CCOCC2)cc1,inactive,–
CCC(Sc1nc2ccsc2c(=O)n1Cc1ccc(C(=O)O)cc1)C(=O)Nc1ccc(Cl)cc1 (centres undefined),"inconclusive: 44.7 µM [inhibitor, partial curve, poor fit]",–
Cc1ccc(C2=NN(S(=O)(=O)c3ccccc3)C(c3ccccc3O)C2)cc1 (centres undefined),inactive,–
COc1ccc(C(=O)Nc2ccccc2)cc1S(=O)(=O)Nc1ccc(Br)cc1,"inconclusive: 5.01 µM [inhibitor, full curve, poor fit]",–
Cc1ccc2nc(NC(=O)CCNS(=O)(=O)c3ccc(Br)s3)sc2c1,–,inconclusive: -33.1% [inhibitor]
COc1ccc(NC(=S)Nc2ccccc2F)c(OC)c1,"inconclusive: 89.1 µM [inhibitor, single point]",–
CC1=C/C(=N/NC(=S)Nc2c(C)cccc2C)CC1,"inconclusive: 44.7 µM [inhibitor, partial curve, poor fit]",–
O=C(CCNc1cnc2cnccn12)NCc1ccc(F)c(Cl)c1,"inconclusive: 31.6 µM [inhibitor, partial curve, poor fit]",–
COc1ccc(-c2ccc([C@H]3[C@H]4C=CC[C@@H](C)[C@@H]4C(=O)N3Cc3ccccc3)c(F)c2)cc1C,inactive,–
CCOC(=O)C1=CN(Cc2ccco2)S(=O)(=O)NC1c1cccc(OC)c1 (centres undefined),"inconclusive: 44.7 µM [inhibitor, partial curve, poor fit]",–

# Gathered by group: the compounds so far containing a cyano group.
SMILES,Potency,"activity change, negative = inhibition"
N#Cc1ccc(C(=O)OCCOc2cccc(Cl)c2)cc1,"inconclusive: 15.8 µM [inhibitor, partial curve, poor fit]",–
N#Cc1ccccc1CNc1ccc(F)c(F)c1F,inactive,–
N#Cc1ccc(O[C@@H]2CCOC[C@H]2NC(=O)NCc2ccco2)cc1,inactive,–
N#Cc1cc2c(cc1-c1cc3c(cc1C(=O)C1CC1)OCCO3)OCCO2,"inconclusive: 50.1 µM [inhibitor, partial curve, poor fit]",–
